Data as given in patent publication US20060052597A1, “Aryloxyalkylamine derivatives as h3 receptor ligands” (priority 2002, published 2006).
Counter-ions that a name gives are not always drawn. Some entries share one result that the patent states for a list of compounds.

Sequences of proteins named here, by UniProt entry; tags and fusion partners are left off. A change or cut given only in a name is not applied to a line headed by its entry.
UniProt Q9Y5N1: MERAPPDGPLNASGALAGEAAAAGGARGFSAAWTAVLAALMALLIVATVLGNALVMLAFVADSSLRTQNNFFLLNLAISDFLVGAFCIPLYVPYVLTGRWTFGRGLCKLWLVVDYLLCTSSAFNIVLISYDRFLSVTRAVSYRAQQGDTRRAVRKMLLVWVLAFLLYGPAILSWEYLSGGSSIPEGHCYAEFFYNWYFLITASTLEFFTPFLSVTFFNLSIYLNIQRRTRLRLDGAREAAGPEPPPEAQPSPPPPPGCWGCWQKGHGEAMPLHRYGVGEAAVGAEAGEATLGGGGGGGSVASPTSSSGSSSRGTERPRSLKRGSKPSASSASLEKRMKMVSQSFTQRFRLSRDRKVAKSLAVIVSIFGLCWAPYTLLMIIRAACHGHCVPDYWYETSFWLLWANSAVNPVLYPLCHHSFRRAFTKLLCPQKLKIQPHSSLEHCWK

Target: T1, histamine H3 receptor (Homo sapiens, UniProt Q9Y5N1)
T1 construct: expressed in transfected cells; host or cells: CHO K1 cells carrying pSwitch, transfected with pGeneH3 and induced with mifepristone; clone 3H3; membrane preparation
Test: Histamine H3 functional antagonist assay ([35S]GTPγS SPA on membranes)
Assay type: biochemical
Details: membranes of CHO K1 clone 3H3 expressing human histamine H3; histamine 0.3 μM; guanosine 5'[γ35-S]thiotriphosphate 0.38 nM
Protocol: A membrane preparation containing histamine H3 receptors may be prepared in accordance with the following procedures:
Ligated DNA was transformed into competent DH5α E. coli host bacterial cells and plated onto Luria Broth (LB) agar containing Zeocin™ (an antibiotic which allows the selection of cells expressing the sh ble gene which is present on pGene and pSwitch) at 50 μg ml^−1. Colonies containing the religated plasmid were identified by restriction analysis. DNA for transfection into mammalian cells was prepared from 250 ml cultures of the host bacterium containing the pGeneH3 plasmid and isolated using a DNA preparation kit (Qiagen Midi-Prep) as per manufacturers guidelines (Qiagen).
CHO K1 cells previously transfected with the pSwitch regulatory plasmid (InVitrogen) were seeded at 2×10e6 cells per T75 flask in Complete Medium, containing Hams F12 (GIBCOBRL, Life Technologies) medium supplemented with 10% v/v dialysed foetal bovine serum, L-glutamine, and hygromycin (100 μg ml^−1), 24 hours prior to use. Plasmid DNA was transfected into the cells using Lipofectamine plus according to the manufacturers guidelines (InVitrogen). 48 hours post transfection cells were placed into complete medium supplemented with 500 μg ml^−1 Zeocin™.
10-14 days post selection 10 nM Mifepristone (InVitrogen), was added to the culture medium to induce the expression of the receptor.
Approximately 1×10e7 cells were examined for receptor expression by staining with a rabbit polyclonal antibody, 4a, raised against the N-terminal domain of the histamine H3 receptor, incubated on ice for 60 minutes, followed by two washes in sorting medium.
Following two further washes with Sorting Medium, cells were filtered through a 50 μm Filcon™ (BD Biosciences) and then analysed on a FACS Vantage SE Flow Cytometer fitted with an Automatic Cell Deposition Unit. […] Positively stained cells were sorted as single cells into 96-well plates, containing Complete Medium containing 500 μg ml^−1 Zeocin™ and allowed to expand before reanalysis for receptor expression via antibody and ligand binding studies.
All steps of the protocol are carried out at 4° C. and with pre-cooled reagents. The cell pellet is resuspended in 10 volumes of buffer A2 containing 50 mM N-2-hydroxyethylpiperazine-N′-2-ethanesulfonic acid (HEPES) (pH 7.40) supplemented with […] leupeptin (acetyl-leucyl-leucyl-arginal; Sigma L2884), 25 μg/ml bacitracin (Sigma B0125), 1 mM ethylenediamine tetra-acetic acid (EDTA), 1 mM phenylmethylsulfonyl fluoride (PMSF) and 2×10e-6M pepstain A (Sigma). The cells are then homogenised by 2×15 second bursts in a 1 litre glass Waring blender, followed by centrifugation at 500 g for 20 minutes. The supernatant is then spun at 48,000 g for 30 minutes. The pellet is resuspended in 4 volumes of buffer A2 by vortexing for 5 seconds, followed by homogenisation in a Dounce homogeniser (10-15 strokes). At this point the preparation is aliquoted into polypropylene tubes and stored at −70° C. […]
The plate is then incubated on a shaker at room temperature for 30 minutes followed by centrifugation for 5 minutes at 1500 rpm. The plate is read between 3 and 6 hours after completion of centrifuge run in a Wallac Microbeta counter on a 1 minute normalised tritium count protocol. Data is analysed using a 4-parameter logistic equation. Basal activity used as minimum i.e. histamine not added to well.

| Structure (SMILES) | pKb |
| --- | --- |
| O=C(c1ccc(OCCCN2CCCCC2)cc1)N1CCN(C(=O)C2CCCCC2)CC1 [Example E57, 1-[4-(3-Piperidin-1-ylpropoxy)benzoyl]-4-(1-cyclohexanecarbonyl)-piperazine hydrochloride] | > 7.5 |
| O=C(c1ccc(OCCCN2CCCCC2)cc1F)N1CCCCC1 [Example E153, N-[2-Fluoro-4-(3-piperidin-1-ylpropoxy)benzoyl]piperidine hydrochloride] | > 7.5 |
| O=C(c1ccc(OCCCN2CCCCC2)cc1)N1CCCCC1 [Example E149, N-[4-(3-Piperidin-1-ylpropoxy)benzoyl]piperidine Hydrochloride] | > 7.5 |
| O=C(c1ccc(OCCCN2CCCCC2)cc1)N1CCN(C(=O)N2CCCC2)CC1 [Example E88, 1-[4-(3-Piperidin-1-ylpropoxy)benzoyl]-4-(pyrrolidine-1-carbonyl)-piperazine Hydrochloride] | > 7.5 |
| O=C(c1ccc(OCCCN2CCCCC2)cc1)N1CCN(c2ccccc2)CC1 [Example E1, N-[4-(3-Piperidin-1-ylpropoxy)benzoyl]-4-phenylpiperazine dihydrochloride] | > 7.5 |
| O=C(c1ccc(OCCCN2CCCCC2)cc1)N1CCC2(CC1)CN(c1ccccc1)C(=O)CO2 [Example E159, 4-Phenyl-9-[4-(3-piperidin-1-ylpropoxy)benzoyl]-1-oxa-4,9-diazaspiro-[5,5]-undecan-3-one hydrochloride] | > 7.5 |
| CC(C)(C)OC(=O)N1CCCN(C(=O)c2ccc(OCCCN3CCCCC3)cc2)CC1 [Example E172, 1-[4-(3-Piperldin-1-ylpropoxy)benzoyl]-4-t-butoxycarbonylhomopiperazine] | > 7.5 |
| C[C@@H]1CN(C(=O)c2ccc(OCCCN3CCCCC3)cc2)C[C@H](C)N1C(=O)c1ccccc1 [Example E100] | > 7.5 |
| O=S(=O)(c1ccc(OCCCN2CCCCC2)cc1)N1CCNCC1 [Example E169, N-[4-(3-Piperidin-1-ylpropoxy)benzenesulfonyl]piperazine dihydrochloride] | > 7.5 |
| O=C(c1ccc(OCCCN2CCCCC2)cc1)N1CCC(c2ccccc2)CC1 [Example E147, N-[4-(3-Piperldin-1-ylpropoxy)benzoyl]-4-phenylpiperidine Hydrochloride] | > 7.5 |
| O=C(N[C@H]1CCN(C(=O)c2ccc(OCCCN3CCCCC3)cc2)C1)c1ccccc1 [Example E156, (S)-N-[4-(3-Piperidin-1-ylpropoxy)benzoyl]-3-benzamidopyrrolidine Dihydrochloride] | > 7.5 |
| O=C(c1ccc(OCCCN2CCCCC2)cc1)N1CCN(C(=O)c2cccs2)CC1 [Example E59, 1-[4-(3-Piperidin-1-ylpropoxy)benzoyl]-4-(thiophen-2-carbonyl)-piperazine Hydrochloride] | > 7.5 |
| O=C(N[C@H]1CCN(C(=O)c2ccc(OCCCN3CCCCC3)cc2)C1)c1cccc2ccccc12 [Example E158, (S)-N-[4-(3-Piperidin-1-ylpropoxy)benzoyl]-3-(naphthalene-1-carboxamidopyrrolidinedihydrochloride] | > 7.5 |
| O=C(c1ccc(OCCCN2CCCCC2)cc1)N1CCN(C(=O)c2ccco2)CC1 [Example E58, 1-[4-(3-Piperidin-1-ylpropoxy)benzoyl]-4-(2-furoyl)-piperazine hydrochloride] | > 7.5 |
| CC(C)(C)OC(=O)N1C[C@@H]2C[C@H]1CN2C(=O)c1ccc(OCCCN2CCCCC2)cc1 [Example E103, (1S,4S)-5-[4-(3-Piperidin-1-ylpropoxy)benzoyl]-2,5-diaza-bicyclo[2.2.1]heptane-2 Carboxylic Acid t-Butyl Ester] | > 7.5 |
| O=C1NC2(CCN(C(=O)c3ccc(OCCCN4CCCCC4)cc3)CC2)CN1Cc1ccccc1 [Example E160, 3-Benzyl-8-[4-(3-piperidin-1-ylpropoxy)benzoyl]-1,3,8-triaza-spiro[4.5]-decan-2-one] | > 7.5 |
| O=S(=O)(c1ccc(OCCCN2CCCCC2)cc1)N1CCOCC1 [Example E163, N-[4-(3-Piperidin-1-ylpropoxy)benzenesulfonyl]morpholine Hydrochloride] | > 7.5 |
| O=C(c1ccc(OCCCN2CCCCC2)cc1)N1CCC(n2cc(-c3ccccc3)[nH]c2=O)CC1 [Example E148, N-[4-(3-Piperidin-1-ylpropoxy)benzoyl]-4-(4-phenyl-1,3-dihydroimidazol-2-one-1-yl)piperidine Hydrochloride] | > 7.5 |
| O=C(c1cc(F)c(OCCCN2CCCCC2)cc1F)N1CCN(c2ccccc2)CC1 [Example E55, N-[2,5-Difluoro-4-(3-piperidin-1-ylpropoxy)benzoyl]-4-phenylpiperazine dihydrochloride] | > 7.5 |
| O=C(c1ccc(OCCCN2CCCCC2)cc1C(F)(F)F)N1CCCCC1 [Example E155, N-[2-Trifluoromethyl-4-(3-Piperidin-1-ylpropoxy)benzoyl]piperidine Hydrochloride] | > 7.5 |
| O=C(c1cc(F)c(OCCCN2CCCCC2)cc1F)N1CCCCC1 [Example E154, N-[2,5-Difluoro-4-(3-piperidin-1-ylpropoxy)benzoyl]piperidine Hydrochloride] | > 7.5 |
